{"source": "patent US9610273B2", "about": "“Method for the treatment of hypercholesterolemia” (SAMI LABS LIMITED, priority 2014, dated 2017)", "test_system": "C57 mice on high fat diet (60 kcal % Fat)", "experiment": "Effect of Calebin A on serum clinical chemistry parameters in high fat diet obese mice (hypercholesterolemia and hyperlipidemia)", "format": "in vivo", "conditions": "28 days, Mean ± SD, n = 5", "text": "d. Diet: The animals were fed ad libitum with AMRUT Laboratory Animal feed manufactured by Pranav Agro Industries Limited, Sangli, Maharastra throughout the acclimatization Open Source Diet D12450B diet (with 10 kcal % Fat) and Open Source Diet D12492 High fat diet (with 60 kcal % Fat) manufactured by Research Diet Inc, USA procured from Indus Marketing, Hyderabad, Andhra Pradesh, INDIA was used for induction of obesity and the main study.\nGrouping of animals was done on the last day of acclimatization by body weight randomization and stratification method.\nThe animals were divided into 5 groups viz., Group 1, 2, 3, 4 and 5 consisting of 10 animals (5 male and 5 female) each.\na. Dose Volume: Dose volume/animal=10 ml/kg body weight for all animals throughout the study period\nb. Obesity induction: The G1 Control group animals were fed with normal control diet feed D12450B containing 10 kcal % fat and the G2 to G5 group animals were fed with high fat diet feed D12492 containing 60 kcal % fat during the induction of obesity and during main study. Obesity induction was done considering the scientific rationale that obesity is a serious risk factor for hypercholesterolemia.\nc. Main Study: The main study was started after the induction of obesity. The 3 doses of Calebin A was administered to animals from Day 29 daily consecutively for a period of 28 days. The feeding of diets continued in the main study in a similar way as performed in induction of obesity. The G1 Control and G2 High fat diet control group animals were administered with 0.5% CMC (Carboxy Methyl Cellulose) while other group animals received test item from Day 29 to Day 56 of the study period. The dose volume of administration was maintained according to the weekly body weight of individual animals.\nd. […]\nThe raw data obtained from the present study were subjected to computer statistical processing. […] All analyses and comparisons was evaluated at the 95% level of confidence (P<0.05), indicated by the designated by the superscripts of a where G1 is compared to G3, G4, G5, and G6 and b where G2 is compared to G3, G4, G5, and G6 throughout the report as stated below: *: Statistically significant (P<0.05) wherever applicable.\nAt the completion of the study period, blood samples were collected from all the animals in tubes containing potassium ethylene […] tetra acetic acid (K2-EDTA) anticoagulant for hematology and without anticoagulant for clinical chemistry. […] The following clinical chemistry parameters were analyzed.\nThe following clinical chemistry parameters (TABLE III) were analyzed using the “Erba Mannheim Chem Touch analyzer” (Transasia Bio-Medicals Ltd, India) from serum samples.", "key": {"[1]": {"conditions": "male mice, G4 10 mg/kg + High fat diet (60 kcal % Fat)"}}, "note": "For at least one compound, name, drawing or mass did not settle the structure. Marks after values point to notes of the source that are not given here."}
{"smiles": "COc1cc(/C=C/C(=O)COC(=O)/C=C/c2ccc(O)c(OC)c2)ccc1O", "note": "[Calebin A]", "values": [{"measurement": "Albumin", "setting": "female mice, G5 20 mg/kg + High fat diet (60 kcal % Fat)", "result": "2.35***^b ± 0.45 ^ g/dL"}, {"measurement": "Total Cholesterol", "setting": "[1]", "result": "61.86*^b ± 21.26 ^ mg/dL"}, {"measurement": "Triglycerides", "setting": "[1]", "result": "65.15**^b ± 10.43 ^ mg/dL"}, {"measurement": "Triglycerides", "setting": "male mice, G5 20 mg/kg + High fat diet (60 kcal % Fat)", "result": "62.35**^b ± 14.20 ^ mg/dL"}]}
